Test results published in the supplement of paper PMC10849652.
Some of the results follow.

Chains of the proteins cited; added tags and fusions are not shown. Lines headed by an entry give the natural chain unless they say otherwise; changes in a name come on top.
UniProt Q16539, whole entry, looked up: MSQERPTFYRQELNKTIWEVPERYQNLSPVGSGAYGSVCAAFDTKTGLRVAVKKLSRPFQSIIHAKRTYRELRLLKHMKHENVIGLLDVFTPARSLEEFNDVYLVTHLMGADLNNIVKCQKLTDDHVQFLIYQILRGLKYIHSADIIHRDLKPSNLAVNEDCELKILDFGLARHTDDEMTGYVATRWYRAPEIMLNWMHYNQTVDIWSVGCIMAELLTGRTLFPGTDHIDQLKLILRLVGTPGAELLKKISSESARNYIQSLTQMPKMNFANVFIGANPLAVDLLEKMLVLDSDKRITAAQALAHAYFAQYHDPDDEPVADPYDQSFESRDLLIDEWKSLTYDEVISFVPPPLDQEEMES
UniProt Q8WWC4: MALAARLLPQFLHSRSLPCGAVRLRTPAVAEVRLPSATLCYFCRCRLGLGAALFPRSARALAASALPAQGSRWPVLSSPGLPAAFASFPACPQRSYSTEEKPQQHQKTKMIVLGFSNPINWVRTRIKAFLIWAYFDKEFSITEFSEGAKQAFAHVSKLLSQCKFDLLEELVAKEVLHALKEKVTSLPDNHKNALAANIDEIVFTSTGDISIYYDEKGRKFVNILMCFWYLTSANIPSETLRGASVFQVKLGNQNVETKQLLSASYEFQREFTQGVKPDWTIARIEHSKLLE
UniProt Q3KQU3: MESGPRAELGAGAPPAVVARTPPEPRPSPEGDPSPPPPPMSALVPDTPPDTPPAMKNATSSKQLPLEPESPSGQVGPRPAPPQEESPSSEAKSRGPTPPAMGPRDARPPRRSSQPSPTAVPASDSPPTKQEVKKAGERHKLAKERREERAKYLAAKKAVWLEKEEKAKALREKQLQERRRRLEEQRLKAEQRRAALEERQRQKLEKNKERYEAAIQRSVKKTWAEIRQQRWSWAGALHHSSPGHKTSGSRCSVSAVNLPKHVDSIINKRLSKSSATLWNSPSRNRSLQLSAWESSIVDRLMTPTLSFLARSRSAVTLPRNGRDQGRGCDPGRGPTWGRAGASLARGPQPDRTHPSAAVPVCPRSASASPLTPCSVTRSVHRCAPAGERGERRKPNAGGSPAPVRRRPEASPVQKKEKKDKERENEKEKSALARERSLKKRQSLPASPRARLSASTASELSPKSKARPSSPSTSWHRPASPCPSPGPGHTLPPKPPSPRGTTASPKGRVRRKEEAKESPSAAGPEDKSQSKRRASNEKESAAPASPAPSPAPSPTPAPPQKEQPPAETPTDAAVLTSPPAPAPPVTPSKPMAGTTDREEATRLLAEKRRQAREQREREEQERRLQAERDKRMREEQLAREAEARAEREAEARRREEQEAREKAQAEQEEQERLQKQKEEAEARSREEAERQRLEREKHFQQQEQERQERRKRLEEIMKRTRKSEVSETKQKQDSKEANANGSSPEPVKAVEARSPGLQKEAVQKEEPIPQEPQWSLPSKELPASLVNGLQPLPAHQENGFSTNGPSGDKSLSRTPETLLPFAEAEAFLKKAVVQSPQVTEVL
UniProt O94822: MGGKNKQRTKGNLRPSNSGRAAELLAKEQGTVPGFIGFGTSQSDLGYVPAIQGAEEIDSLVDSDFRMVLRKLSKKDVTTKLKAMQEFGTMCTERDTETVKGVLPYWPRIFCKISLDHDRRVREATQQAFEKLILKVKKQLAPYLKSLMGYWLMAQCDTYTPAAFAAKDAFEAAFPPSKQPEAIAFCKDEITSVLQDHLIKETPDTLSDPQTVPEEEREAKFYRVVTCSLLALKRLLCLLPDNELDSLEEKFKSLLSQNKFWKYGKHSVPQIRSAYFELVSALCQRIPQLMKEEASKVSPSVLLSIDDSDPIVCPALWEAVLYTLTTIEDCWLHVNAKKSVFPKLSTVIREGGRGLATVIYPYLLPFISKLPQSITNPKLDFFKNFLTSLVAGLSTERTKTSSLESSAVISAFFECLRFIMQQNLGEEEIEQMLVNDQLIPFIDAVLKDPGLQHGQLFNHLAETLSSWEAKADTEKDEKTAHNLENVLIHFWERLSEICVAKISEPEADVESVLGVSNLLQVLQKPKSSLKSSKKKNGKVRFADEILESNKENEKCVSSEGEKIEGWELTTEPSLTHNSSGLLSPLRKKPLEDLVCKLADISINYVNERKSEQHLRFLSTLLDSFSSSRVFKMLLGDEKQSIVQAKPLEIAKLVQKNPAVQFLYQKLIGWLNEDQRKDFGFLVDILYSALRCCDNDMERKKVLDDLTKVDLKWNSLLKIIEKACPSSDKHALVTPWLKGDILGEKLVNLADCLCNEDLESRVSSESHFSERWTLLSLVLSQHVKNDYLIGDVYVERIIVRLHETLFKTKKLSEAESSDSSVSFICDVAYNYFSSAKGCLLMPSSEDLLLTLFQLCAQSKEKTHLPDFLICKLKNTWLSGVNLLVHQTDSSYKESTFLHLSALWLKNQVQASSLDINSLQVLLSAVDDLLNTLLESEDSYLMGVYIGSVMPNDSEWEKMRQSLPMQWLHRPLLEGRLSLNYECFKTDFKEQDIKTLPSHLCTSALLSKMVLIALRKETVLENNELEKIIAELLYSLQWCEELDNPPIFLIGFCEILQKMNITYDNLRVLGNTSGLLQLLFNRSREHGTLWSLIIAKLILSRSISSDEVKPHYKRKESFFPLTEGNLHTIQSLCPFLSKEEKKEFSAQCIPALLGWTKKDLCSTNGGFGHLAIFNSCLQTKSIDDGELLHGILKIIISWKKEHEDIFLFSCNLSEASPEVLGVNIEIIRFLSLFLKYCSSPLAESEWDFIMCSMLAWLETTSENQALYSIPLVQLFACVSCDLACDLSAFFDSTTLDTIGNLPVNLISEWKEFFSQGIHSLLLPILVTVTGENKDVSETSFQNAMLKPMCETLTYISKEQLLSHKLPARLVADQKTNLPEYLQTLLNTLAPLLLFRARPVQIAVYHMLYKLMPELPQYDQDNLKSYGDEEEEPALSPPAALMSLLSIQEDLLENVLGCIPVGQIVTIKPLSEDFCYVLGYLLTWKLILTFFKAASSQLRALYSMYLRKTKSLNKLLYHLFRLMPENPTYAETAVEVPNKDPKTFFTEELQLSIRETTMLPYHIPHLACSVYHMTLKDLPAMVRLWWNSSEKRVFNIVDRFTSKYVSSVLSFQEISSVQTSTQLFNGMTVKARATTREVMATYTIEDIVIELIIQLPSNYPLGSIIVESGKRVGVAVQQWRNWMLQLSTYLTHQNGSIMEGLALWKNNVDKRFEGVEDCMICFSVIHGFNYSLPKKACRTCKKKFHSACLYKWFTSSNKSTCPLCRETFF
UniProt P31153, whole entry, looked up: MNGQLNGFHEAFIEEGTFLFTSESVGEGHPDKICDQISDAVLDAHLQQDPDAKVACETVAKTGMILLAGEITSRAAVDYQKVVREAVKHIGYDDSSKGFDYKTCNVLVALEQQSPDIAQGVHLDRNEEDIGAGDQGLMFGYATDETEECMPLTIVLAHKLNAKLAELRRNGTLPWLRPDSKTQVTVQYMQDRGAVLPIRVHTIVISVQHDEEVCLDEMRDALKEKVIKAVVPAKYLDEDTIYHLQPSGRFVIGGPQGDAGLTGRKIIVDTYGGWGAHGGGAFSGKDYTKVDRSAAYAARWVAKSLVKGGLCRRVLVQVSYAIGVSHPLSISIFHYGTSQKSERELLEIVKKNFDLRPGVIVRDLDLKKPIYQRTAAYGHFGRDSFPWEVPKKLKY
UniProt O43318: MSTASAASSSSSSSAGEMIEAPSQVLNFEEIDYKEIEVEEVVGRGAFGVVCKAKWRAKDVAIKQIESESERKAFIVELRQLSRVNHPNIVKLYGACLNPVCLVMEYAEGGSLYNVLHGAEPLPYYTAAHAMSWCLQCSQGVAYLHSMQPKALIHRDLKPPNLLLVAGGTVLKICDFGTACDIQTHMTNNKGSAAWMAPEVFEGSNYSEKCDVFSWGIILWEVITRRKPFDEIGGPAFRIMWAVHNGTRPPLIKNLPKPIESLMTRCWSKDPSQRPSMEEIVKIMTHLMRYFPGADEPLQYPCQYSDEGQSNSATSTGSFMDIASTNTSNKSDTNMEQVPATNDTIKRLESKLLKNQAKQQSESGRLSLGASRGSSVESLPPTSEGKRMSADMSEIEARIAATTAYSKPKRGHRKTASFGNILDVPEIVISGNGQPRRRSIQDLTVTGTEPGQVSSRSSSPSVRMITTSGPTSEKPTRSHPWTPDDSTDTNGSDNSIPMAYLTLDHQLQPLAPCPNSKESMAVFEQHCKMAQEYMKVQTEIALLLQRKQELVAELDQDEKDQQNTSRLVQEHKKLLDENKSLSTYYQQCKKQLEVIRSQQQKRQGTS
UniProt Q9NQ48: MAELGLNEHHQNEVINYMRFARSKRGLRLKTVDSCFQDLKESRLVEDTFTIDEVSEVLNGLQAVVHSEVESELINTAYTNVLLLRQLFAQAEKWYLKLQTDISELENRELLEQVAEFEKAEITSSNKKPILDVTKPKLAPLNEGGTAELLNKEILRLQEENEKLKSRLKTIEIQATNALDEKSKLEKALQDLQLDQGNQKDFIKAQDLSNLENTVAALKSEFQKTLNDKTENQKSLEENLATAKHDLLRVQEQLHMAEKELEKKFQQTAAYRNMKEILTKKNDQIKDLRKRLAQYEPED
UniProt P45983: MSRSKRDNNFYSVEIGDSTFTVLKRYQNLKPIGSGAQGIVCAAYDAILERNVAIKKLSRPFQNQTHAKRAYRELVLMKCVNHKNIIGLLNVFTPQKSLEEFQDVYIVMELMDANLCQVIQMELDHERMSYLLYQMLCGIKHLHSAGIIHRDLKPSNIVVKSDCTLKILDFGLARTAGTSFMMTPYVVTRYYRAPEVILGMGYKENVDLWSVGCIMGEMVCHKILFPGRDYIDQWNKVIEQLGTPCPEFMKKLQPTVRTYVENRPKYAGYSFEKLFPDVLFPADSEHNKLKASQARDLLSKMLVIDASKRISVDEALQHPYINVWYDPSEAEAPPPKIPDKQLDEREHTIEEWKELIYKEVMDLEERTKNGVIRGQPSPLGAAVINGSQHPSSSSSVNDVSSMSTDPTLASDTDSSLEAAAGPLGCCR
UniProt P27816: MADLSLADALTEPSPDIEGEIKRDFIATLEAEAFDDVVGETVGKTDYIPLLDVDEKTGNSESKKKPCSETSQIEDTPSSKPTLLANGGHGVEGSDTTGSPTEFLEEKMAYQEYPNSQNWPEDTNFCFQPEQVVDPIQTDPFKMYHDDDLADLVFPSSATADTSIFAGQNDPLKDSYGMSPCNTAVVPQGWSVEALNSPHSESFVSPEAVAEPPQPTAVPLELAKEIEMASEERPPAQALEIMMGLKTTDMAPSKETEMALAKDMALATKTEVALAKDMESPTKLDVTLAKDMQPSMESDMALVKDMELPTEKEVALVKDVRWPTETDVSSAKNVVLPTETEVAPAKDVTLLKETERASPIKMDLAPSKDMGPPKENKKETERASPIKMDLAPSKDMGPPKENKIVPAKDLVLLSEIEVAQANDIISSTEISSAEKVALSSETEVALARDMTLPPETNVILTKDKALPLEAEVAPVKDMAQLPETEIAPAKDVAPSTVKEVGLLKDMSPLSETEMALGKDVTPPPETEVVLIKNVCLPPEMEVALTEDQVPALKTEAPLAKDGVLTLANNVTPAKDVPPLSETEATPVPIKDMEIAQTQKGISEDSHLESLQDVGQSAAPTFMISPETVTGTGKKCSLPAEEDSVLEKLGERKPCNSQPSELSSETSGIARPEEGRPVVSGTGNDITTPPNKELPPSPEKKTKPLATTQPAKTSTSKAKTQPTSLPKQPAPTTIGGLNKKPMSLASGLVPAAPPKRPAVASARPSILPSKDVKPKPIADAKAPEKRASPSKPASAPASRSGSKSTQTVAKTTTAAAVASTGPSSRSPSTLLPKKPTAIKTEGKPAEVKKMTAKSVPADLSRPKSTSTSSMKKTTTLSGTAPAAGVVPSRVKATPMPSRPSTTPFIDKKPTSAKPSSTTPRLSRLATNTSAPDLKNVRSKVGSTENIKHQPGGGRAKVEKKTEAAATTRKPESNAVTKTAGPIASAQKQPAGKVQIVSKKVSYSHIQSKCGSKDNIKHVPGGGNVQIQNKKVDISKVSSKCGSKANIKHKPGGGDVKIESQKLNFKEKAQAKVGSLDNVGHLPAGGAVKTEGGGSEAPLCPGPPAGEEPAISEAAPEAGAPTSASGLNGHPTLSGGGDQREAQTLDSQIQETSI
UniProt P28482, whole entry, looked up: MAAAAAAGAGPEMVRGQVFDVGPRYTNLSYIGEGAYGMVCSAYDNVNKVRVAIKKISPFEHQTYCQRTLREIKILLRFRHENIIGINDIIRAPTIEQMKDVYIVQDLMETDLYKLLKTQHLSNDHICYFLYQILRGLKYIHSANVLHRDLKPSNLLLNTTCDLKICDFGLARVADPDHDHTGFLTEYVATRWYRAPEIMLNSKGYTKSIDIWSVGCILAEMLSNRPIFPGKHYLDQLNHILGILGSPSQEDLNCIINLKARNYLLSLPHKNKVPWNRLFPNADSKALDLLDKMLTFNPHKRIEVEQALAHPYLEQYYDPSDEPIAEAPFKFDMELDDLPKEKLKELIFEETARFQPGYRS

Each target was assayed with C1CCN(C1)C(=O)NC2=CC=CC(=C2)NC3=NC=C(C(=N3)NCCC4=CN=CN4)Br (assay: log2 fold change, soluble protein after heating vs DMSO (PISA); higher = thermal stabilisation; K562 lysate, 10 uM; active = over 0.2 and 3.5 SD of the protein, either way, in both replicates (recomputed)).
Summary of the method: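 A 30 min treatment with 10 μM compound was applied to crude K562 extract at 1 mg/mL protein in PBS pH 7.4 with 1 mM MgCl2. Heating for 3 min spanned 48°C-58°C, after which aliquots were pooled, adjusted to 0.5% NP-40 at 4°C and spun at 21,000xg for 90 min. TMTpro 16plex LC-MS/MS of the supernatant, with channel sums equalised, gave values recorded as log-two fold change in thermal stability against solvent controls, from duplicates.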

log2 fold change, inactive:
MAP1S (UniProt Q66K74) -0.044
MACROD1 (UniProt Q9BQ69) 0.131
MAPK14 (UniProt Q16539) -0.076
MAIP1 (UniProt Q8WWC4) 0.033
MAP3K20 isoform 2 (UniProt Q9NYL2) -0.122
LYAR (UniProt Q9NX58) 0.007
MARS (UniProt P56192) 0.003
MAP7D1 (UniProt Q3KQU3) 0.018
MAP2K2 (UniProt P36507) 0.219
LTN1 isoform 3 (UniProt O94822) -0.019
MAT2A (UniProt P31153) 0.016
LYSMD1 (UniProt Q96S90) 0.016
MAPRE2 (UniProt Q15555) -0.004
MAP3K7 (UniProt O43318) -0.041
LYN (UniProt P07948) 0.07
MAP11 (UniProt Q8WVR3) -0.135
MAP2K4 isoform 2 (UniProt P45985) 0.039
MAN2C1 isoform 4 (UniProt Q9NTJ4) 0.036
MAN2A2 (UniProt P49641) 0.034
LZTFL1 (UniProt Q9NQ48) 0.002
MAPK8 isoform 3 (UniProt P45983) 0.003
MACF1 isoform 3 (UniProt Q9UPN3) -0.016
MAN2A1 (UniProt Q16706) -0.057
MAN2B1 (UniProt O00754) -0.01
MAP2K1 (UniProt Q02750) 0.105
MAP4 isoform 5 (UniProt P27816) -0.05
MAD2L2 (UniProt Q9UI95) 0.094
MAP3K20 (UniProt Q9NYL2) -0.007
MARCKS (UniProt P29966) 0.176
MAP4 (UniProt E7EVA0) 0.071
MAF1 (UniProt Q9H063) 0.013
MAPK1 (UniProt P28482) 0.017

A portion of the results above, for reference:
log2 fold change, inactive:
MAP11 (UniProt Q8WVR3) -0.135
MAP2K4 isoform 2 (UniProt P45985) 0.039
MAN2C1 isoform 4 (UniProt Q9NTJ4) 0.036
MAN2A2 (UniProt P49641) 0.034
LZTFL1 (UniProt Q9NQ48) 0.002
